# Reference: PubChem BioAssay AID540275 (National Center for Advancing Translational Sciences (NCATS), 2011)
# By UniProt entry, the sequences of proteins in these tests, tags left out.
# UniProt Q8NER1, whole entry, looked up: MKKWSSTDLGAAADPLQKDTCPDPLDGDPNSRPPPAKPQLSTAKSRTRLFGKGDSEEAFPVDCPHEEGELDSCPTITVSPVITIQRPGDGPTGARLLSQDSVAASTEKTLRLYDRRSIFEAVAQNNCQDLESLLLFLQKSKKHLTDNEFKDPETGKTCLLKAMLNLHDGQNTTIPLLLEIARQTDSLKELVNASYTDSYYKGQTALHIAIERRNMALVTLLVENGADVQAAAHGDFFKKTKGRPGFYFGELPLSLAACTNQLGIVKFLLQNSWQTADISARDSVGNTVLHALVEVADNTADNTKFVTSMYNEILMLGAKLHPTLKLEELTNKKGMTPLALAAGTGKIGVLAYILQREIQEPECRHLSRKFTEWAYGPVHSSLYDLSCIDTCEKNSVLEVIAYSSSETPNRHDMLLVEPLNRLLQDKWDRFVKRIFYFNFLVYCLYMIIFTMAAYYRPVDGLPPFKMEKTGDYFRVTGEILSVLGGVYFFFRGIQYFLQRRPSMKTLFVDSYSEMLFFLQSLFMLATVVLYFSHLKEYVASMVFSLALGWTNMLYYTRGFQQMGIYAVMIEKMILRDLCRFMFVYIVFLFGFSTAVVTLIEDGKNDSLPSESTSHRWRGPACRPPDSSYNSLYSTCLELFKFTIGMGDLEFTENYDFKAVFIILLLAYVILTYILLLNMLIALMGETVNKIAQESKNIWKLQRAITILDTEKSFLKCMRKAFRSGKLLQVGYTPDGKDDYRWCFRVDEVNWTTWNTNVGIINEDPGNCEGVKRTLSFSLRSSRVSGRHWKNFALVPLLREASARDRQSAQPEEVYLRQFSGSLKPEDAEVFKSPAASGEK
# Out of some 320,000 compounds screened, about 620 (0.19%) were called active. The inconclusive results got no clear call from the source; some entries with a clear call stand among them for comparison. Rule as the data show it: active = activation above about 80%; inconclusive = between about 30% and that limit; inactive = weaker than that.
# Molecular target: Transient receptor potential cation channel subfamily V member 1 (Homo sapiens) (UniProt Q8NER1)
# Experiment: HTS Assay for Compounds that Act as Agonists of the Vanilloid Receptor 1; also: 0% is about no effect
# Conditions: TRPV1-expressing cells, Fluo-8 calcium influx, agonist mode; at 8.33 µM, hits give high values
# How it was run: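 Fluo-8 calcium influx in TRPV1-expressing cells, kinetic read (ex 480/em 520 nm). Compound added and read 3 min for agonist activity, followed by capsaicin at EC20 final and 2 min further read for enhancement.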
row,Structure (SMILES),activation
1,C=CCN1C=C2C(=O)C(C)(OC(=O)C3CCCC3)C(=O)C(c3ccccc3)=C2C=C1CCCC(=O)OC (configuration not stated),inconclusive: 32%
2,COCCNCCCCOc1ccc(Br)cc1C,inactive: -0.535%
3,C=CCn1cccc(C(=O)Nc2ccc(OC)c(Cl)c2)c1=O,inconclusive: 47.4%
4,Cc1cccc(Cc2cnc(NC(=O)c3ccc(C)o3)s2)c1,inconclusive: 77.5%
5,COc1ccc(Cl)cc1NC(=O)NCC1CCN(Cc2cc(C)ccc2C)CC1,inactive: 1.75%
6,O=C(NCc1ccc2c(c1)OCO2)c1ccc(Br)s1,inconclusive: 61.4%
7,O=C(Cn1nnc2c(cnn2-c2ccccc2)c1=O)NCc1cccs1,inconclusive: 34%
8,CC(NC(=O)c1cn(C(C)c2ccccc2F)nn1)c1ccncc1 (configuration not stated),inconclusive: 40.9%
9,COc1cccc(CN2CCN(C(=O)c3cc(-c4ccccn4)nc4ccc(Cl)cc34)CC2)c1,inconclusive: 34.6%
10,Cc1ccc(C(=O)Nc2cccnc2)cc1Cl,inconclusive: 63.6%
11,CC(C)Oc1ccc(S(=O)(=O)N2CCOCC2)cc1NC(=O)C(C)Oc1ccc(F)cc1 (configuration not stated),inconclusive: 43.5%
12,CCOC(=S)SCc1cn2ccc(C)cc2n1,inactive: 11.4%
13,O=C(Nc1ccc2c(c1)OC1(CCCC1)O2)C1CC1,inconclusive: 70.5%
14,CN(c1ccc(C(=O)Nc2ccc(S(=O)(=O)N3CCCC3)cc2)cc1)S(C)(=O)=O,inconclusive: 44.2%
15,Cc1ccc(N2CCN(C(=O)N3CCCC3)CC2)cc1Cl,inconclusive: 67%
16,CCC(=O)Nc1cccc(C(=O)/C=C/c2cccs2)c1,inactive: 9.15%
17,O=C(OCC(=O)N1CCCCC1)c1cc2ccccc2cc1O,inconclusive: 42.3%
18,CCOc1ccc(N(CC(=O)N2CCOCC2)S(=O)(=O)c2ccc(F)cc2)cc1,inconclusive: 37%
19,Cc1ccc(NC(=O)CO/N=C/c2ccc(N(C)C)cc2)cc1,inconclusive: 45.9%
20,O=C(CC12CC3CC(CC(C3)C1)C2)NC(=S)NCc1ccccc1,inactive: 1.61%
21,COC(=O)c1sc2cc(C(F)(F)F)cnc2c1-c1ccccc1,inconclusive: 50.5%
22,O=C(CSc1nc2ccccc2[nH]1)NCc1ccc2c(c1)OCO2,inconclusive: 53.5%
23,Cc1ccc(-c2csc3ncnc(N4CCN(C(=O)c5ccccc5)CC4)c23)cc1,inactive: 20.7%

row,Structure (SMILES),activation
1,CNC(=S)N1CCC(Cc2ccccc2)CC1,inconclusive: 53.6%
2,Cc1ccc(S(=O)(=O)Nc2ccccc2N2CCOCC2)cc1,inactive: 6.37%
3,Cc1nc(NC(=O)c2ccc(Br)o2)ccc1Br,inconclusive: 39.3%
4,O=C(CCCC(=O)OCC(Cl)=C(Cl)Cl)Nc1ccc(F)cc1,inconclusive: 43.5%
5,O=C1NCC(O)=C1C=NCCCO,inactive: -1.52%
6,Cn1nnc2cc(C(=O)Nc3ccc4ccccc4c3)ccc21,inconclusive: 60.1%
7,COc1ccc(Cl)cc1NC(=O)CSc1nc(=O)[nH]c2c1CCC2,inactive: 3.53%
8,O=C(/C=C/c1ccc(F)cc1)NCCC1=CCCCC1,inconclusive: 67.3%
9,Cc1cc(NC(=O)CSc2nc(C(C)C)nc3c2c(=O)n(C)c(=O)n3C)no1,inactive: -3.4%
10,Cc1ccc(S(=O)(=O)N(C)CC(=O)Nc2cccc3c2CCCC3)cc1,inconclusive: 36.9%
11,COc1ccc2nc(NC(=O)c3ccco3)sc2c1,inconclusive: 48.9%
12,Cc1ccc(CN2C(=O)C(C)(C)Oc3ccc(C(=O)N4CCCCC4)cc32)cc1,inconclusive: 36.8%
13,COc1ccc(C(=O)N2CCCC(c3ccccc3)=N2)cc1,inconclusive: 45.5%
14,O=C(NCCN1CCOCC1)c1ccc2c(c1)N(Cc1ccc(Cl)cc1)C(=O)CS2,inconclusive: 34.5%
15,Oc1ccccc1Cn1c(-c2ccccc2O)nc2ccccc21,inconclusive: 39%
16,O=C(c1ccsc1)N1CCCC(Nc2cccc(F)c2)C1 (configuration not stated),inconclusive: 49.4%
17,CN(CC(=O)NCC1CCCCC1)CC(=O)Nc1ccccc1Br,inconclusive: 42.3%
18,COc1ccc(CCn2c(=N)c(C(=O)NCc3ccco3)cc3c(=O)n4ccccc4nc32)cc1,inconclusive: 49.8%
19,CCOC(=O)c1c(C)[nH]c(C)c1S(=O)(=O)NCCN1CCN(c2ccccc2F)CC1,inactive: 4.28%
20,CCCCn1c(N(CCOC(C)=O)C(C)=O)nc2ccccc21,inconclusive: 32.5%
21,Cc1cc(C)c(C(=O)OCC(=O)NC(=O)c2ccccc2)c(C)c1,inconclusive: 45.7%
22,CCCc1cc(=O)oc2cc(C)c3c(C)coc3c12,inactive: 19.7%
23,Cc1ccc(-c2csc(NC(=O)CSc3nc4ccccc4o3)n2)cc1,inactive: 0.781%

row,Structure (SMILES),activation
1,CCCC(C)C(=O)OCC(=O)NCc1ccc(OC)c(OC)c1 (configuration not stated),inconclusive: 54.5%
2,CC1CCN(C(=O)c2cc(-c3ccc(Cl)c(Cl)c3)on2)CC1,inconclusive: 63.1%
3,CC1CC(C)CN(C(=O)C(Cc2ccccc2)n2cccc2)C1 (configuration not stated),inconclusive: 59.9%
4,CCOC(=O)c1oc2ccccc2c1COC(=O)CNC(=O)c1ccc(C)cc1,inconclusive: 39.4%
5,Cc1ccc(NS(=O)(=O)c2ccc3c(c2)NC(=O)CCS3)c(C)c1,inconclusive: 39.9%
6,Cc1ccc(-n2ncc3c2CC(C)(C)CC3NC(=O)CCc2ccncc2)cc1 (configuration not stated),inconclusive: 39.3%
7,O=C(c1cc(COc2ccc(F)cc2F)on1)N1C[C@H]2CC[C@H]1C2,inconclusive: 36.6%
8,CN(C)NC(=S)NC1(C)CCS(=O)(=O)C1 (configuration not stated),inactive: -0.419%
9,Cc1nc(NC(=O)c2ccco2)sc1C(=O)O,inactive: 0.762%
10,Cc1ccc2c(cnn2C(=O)CCCC(=O)NCc2ccc(F)cc2)c1,inconclusive: 43.9%
11,COc1cc(NC(=S)NC(=O)c2cc(C)cc(C)c2)ccc1NC(=O)c1cccs1,inactive: -0.408%
12,CCOCCCN(C)C1CCN(C(=O)c2oc3ccccc3c2NC(=O)COc2ccc(F)cc2)CC1,inactive: -0.0643%
13,CC/C(=N/NC(=O)c1ccccc1)c1ccc(OCCN2CCOCC2)cc1,inconclusive: 52.6%
14,CC(C)c1ccc(CN(C)C(=O)c2ccc(S(=O)(=O)NCc3ccco3)cc2)cc1,inactive: -1.03%
15,Cn1cccc1/C=N/NC(=O)c1cc2ccccc2cc1O,inconclusive: 31.2%
16,Cc1cc(C)c2c(N)c(C(=O)C(C)(C)C)sc2n1,inconclusive: 35.7%
17,CC(NC(=S)Nc1ccccc1Cl)C(c1ccccc1)N1CCOCC1 (configuration not stated),inactive: 22.1%
18,COC(=O)C1=C(N)c2c(F)cccc2C1(C#N)c1ccc(F)cc1 (configuration not stated),inconclusive: 34.9%
19,Cc1cccc2cc(C(c3nnnn3C(C)(C)C)N(Cc3ccco3)CC3CCCO3)c(=O)[nH]c12 (configuration not stated),inconclusive: 30.3%
20,N#Cc1cc(C(=O)c2ccccc2O)cn(-c2nccs2)c1=O,active: 87.1%
21,O/C(=C\c1nc2ccccc2nc1/C=C(\O)c1ccccc1)c1ccccc1,inactive: 16.9%
22,O=C(/C=C/c1ccccc1)N1CCOCC1,inconclusive: 32.6%
23,CCc1ccc(N2C(=O)C(Cl)=C(N3CCOCC3)C2=O)cc1,inconclusive: 58%

row,Structure (SMILES),activation
1,O=C(c1ccc2c(c1)OCCO2)C1CCN(C(=O)c2ccc(F)cc2)CC1,inactive: 1.8%
2,Cc1nn(C)c(C(=O)NNC(=S)NCc2ccco2)c1Cl,inactive: -3.87%
3,O=C(CCc1ccccc1)NC(=S)Nc1cccc(C(=O)O)c1,inactive: 1.23%
4,Cc1ccc(C(C(=O)NCC2CCCO2)N(Cc2ccccc2)C(=O)c2ccc(-c3ccccc3)[nH]2)o1 (configuration not stated),inconclusive: 37%
5,COc1cc(OC)c(C(=O)NC23CC4CC(CC(C4)C2)C3)cc1OC,inconclusive: 41.9%
6,CC(=O)Nc1ccc(NC(=O)C(C)OC(=O)c2cccc(S(=O)(=O)N3CCCCCC3)c2)cc1 (configuration not stated),inactive: 4.05%
7,CC(NC(=O)/C=C/c1ccc(Br)cc1)c1ccc(Cl)cc1 (configuration not stated),inconclusive: 43.1%
8,COc1cccc(NC(=O)CN2C(=O)NC3(CCc4ccccc43)C2=O)c1 (configuration not stated),inactive: -1.04%
9,O=C(N/N=C/c1ccccn1)c1ccc(NC(=O)c2ccccc2Cl)cc1,inconclusive: 31.2%
10,COc1ccccc1C1CCN(C(=O)c2ccccc2)CC1,inconclusive: 33.1%
11,CCc1nc2ccc(C(=O)Nc3cccc(C(C)=O)c3)cc2nc1CC,inconclusive: 76.7%
12,Cc1ccc(CNC(=O)CN2C(=O)NC(C)(c3ccccc3Cl)C2=O)cc1 (configuration not stated),inactive: -1.92%
13,O=C(c1ccco1)N1CCN(C(=O)C23CC4CC(CC(C4)C2)C3)CC1,inconclusive: 39.9%
14,O=C(Nc1ccc(Cl)cc1)c1ccsn1,inconclusive: 57.3%
15,CC(C)C(C)(C#N)NC(=O)CSc1nc(C2CCCCC2)n(-c2ccccc2)n1 (configuration not stated),inconclusive: 65.9%
16,CC1Cc2ccccc2N1C(=O)CSc1nnc(CNc2ccccc2)o1 (configuration not stated),inconclusive: 45.1%
17,COc1ccc(C(=O)NNC(=O)c2ccccn2)cc1,inconclusive: 52.9%
18,CC(C)(C)c1ccc(NC(=O)c2ccc(=O)[nH]n2)cc1,inconclusive: 69.8%
19,COc1cccc(NC(=O)CN(C)C(=O)CNC(=O)c2ccc3ccccc3c2)c1,inconclusive: 31%
20,O=C(CNCCC1=CCCCC1)Nc1ccccc1N1CCCCCC1,inconclusive: 39%
21,O=C(NNc1nc2c(F)cccc2s1)c1ccccc1,inactive: 2.04%
22,O=C(CN(C1CCCCC1)S(=O)(=O)c1ccc(Cl)cc1)NCc1ccncc1,inconclusive: 46.1%
23,COc1ccc(NC(=O)CN(C)CC(=O)N2CCCCCC2)cc1,inactive: -4.55%

# Ordered by SMILES length (largest number first): some entries from above
row,Structure (SMILES),activation
19,COc1cccc(NC(=O)CN(C)C(=O)CNC(=O)c2ccc3ccccc3c2)c1,inconclusive: 31%
1,O=C(c1ccc2c(c1)OCCO2)C1CCN(C(=O)c2ccc(F)cc2)CC1,inactive: 1.8%
5,COc1cc(OC)c(C(=O)NC23CC4CC(CC(C4)C2)C3)cc1OC,inconclusive: 41.9%
23,COc1ccc(NC(=O)CN(C)CC(=O)N2CCCCCC2)cc1,inactive: -4.55%
10,COc1ccccc1C1CCN(C(=O)c2ccccc2)CC1,inconclusive: 33.1%
